Source: patent publication US20220177596A1
These are yes or no findings as the source states them, for the method shown. Some results given as binding are weak or reduced against the parent protein; the word gives no strength.

Chains of the proteins cited; added tags and fusions are not shown. Lines headed by an entry give the natural chain unless they say otherwise; changes in a name come on top.
UniProt P25942: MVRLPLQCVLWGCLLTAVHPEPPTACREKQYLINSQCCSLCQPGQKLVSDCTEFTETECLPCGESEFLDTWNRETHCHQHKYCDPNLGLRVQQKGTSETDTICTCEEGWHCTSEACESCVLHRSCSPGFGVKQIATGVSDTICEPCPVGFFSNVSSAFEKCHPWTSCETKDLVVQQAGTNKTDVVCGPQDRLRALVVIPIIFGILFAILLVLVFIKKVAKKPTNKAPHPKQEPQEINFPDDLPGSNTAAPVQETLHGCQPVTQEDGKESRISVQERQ

target: human-CD40 monomer (human) (UniProt P25942); experiment: SPR 2 pt screen

Binder | binding
humanized Y1238 hz22 (hz-HC5 / hz-LC2), IgG1.3f (antibody, V domains shown) VH: QVQLVQSGAEVKKPGASVKVSCKASGYAFTNYLIEWVRQRPGQGLEWMGVINPGSGGTNYNEKFKGRVTMTADKSISTAYMELSRLRSDDTAVYYCARSQLGRRFDYWGQGTLVTVSS VL: DIQMTQSPSSLSASVGDRVTITCKASQDVRTGVAWYQQKPGKAPKLLIYSASYRNTGVPSRFSGSRSGTDFTFTISSLQPEDIATYYCQQHYSPPYTFGGGTKVEIK | binds
humanized Y1238 hz43 (hz-HC9 / hz-LC3), IgG1.3f (antibody, V domains shown) VH: QVQLVQSGAEVVKPGASVKVSCKASGYAFTNYLIEWVRQRPGQGLEWMGVINPGSGGTNYNEKFKGRVTLTADKSSSTAYMQLSRLRSDDTAVYFCARSQLGRRFDYWGQGTTVTVSS VL: DIQMTQSPSSLSASVGDRVTITCKASQDVRTGVAWYQQKPGQSPKLLIYSASYRNTGVPSRFSGSRSGTDFTFTISSLQPEDIAVYYCQQHYSPPYTFGGGTKVEIK | binds
humanized Y1238 hz36 (hz-HC8 / hz-LC1), IgG1.3f (antibody, V domains shown) VH: QVQLVQSGAEVVKPGASVKVSCKASGYAFTNYLIEWVRQRPGQGLEWMGVINPGSGGTNYNEKFKGRVTLTADKSSSTAYMQLSRLRSDDTAVYFCARSQLGRRFDYWGQGTLVTVSS VL: DIQMTQSPSSLSASVGDRVTITCKASQDVRTGVAWYQQKPGKAPKLLIYSASYRNTGVPSRFSGSGSGTDFTFTISSLQPEDIATYYCQQHYSPPYTFGGGTKVEIK | binds
humanized Y1238 hz29 (hz-HC6 / hz-LC4), IgG1.3f (antibody, V domains shown) VH: QVQLVQSGAEVKKPGASVKVSCKASGYAFTNYLIEWVRQRPGQGLEWMGVINPGSGGTNYNEKFKGRVTLTADKSISTAYMELSRLRSDDTAVYYCARSQLGRRFDYWGQGTLVTVSS VL: DIQMTQSPSSLSASVGDRVTITCKASQDVRTGVAWYQQKPGQSPKLLIYSASYRNTGVPSRFSGSRSGTDFTFTISSLQAEDIAVYYCQQHYSPPYTFGGGTKVEIK | binds
humanized Y1238 hz23 (hz-HC5 / hz-LC3), IgG1.3f (antibody, V domains shown) VH: QVQLVQSGAEVKKPGASVKVSCKASGYAFTNYLIEWVRQRPGQGLEWMGVINPGSGGTNYNEKFKGRVTMTADKSISTAYMELSRLRSDDTAVYYCARSQLGRRFDYWGQGTLVTVSS VL: DIQMTQSPSSLSASVGDRVTITCKASQDVRTGVAWYQQKPGQSPKLLIYSASYRNTGVPSRFSGSRSGTDFTFTISSLQPEDIAVYYCQQHYSPPYTFGGGTKVEIK | binds
humanized Y1238 hz26 (hz-HC6 / hz-LC1), IgG1.3f (antibody, V domains shown) VH: QVQLVQSGAEVKKPGASVKVSCKASGYAFTNYLIEWVRQRPGQGLEWMGVINPGSGGTNYNEKFKGRVTLTADKSISTAYMELSRLRSDDTAVYYCARSQLGRRFDYWGQGTLVTVSS VL: DIQMTQSPSSLSASVGDRVTITCKASQDVRTGVAWYQQKPGKAPKLLIYSASYRNTGVPSRFSGSGSGTDFTFTISSLQPEDIATYYCQQHYSPPYTFGGGTKVEIK | binds
humanized Y1238 hz37 (hz-HC8 / hz-LC2), IgG1.3f (antibody, V domains shown) VH: QVQLVQSGAEVVKPGASVKVSCKASGYAFTNYLIEWVRQRPGQGLEWMGVINPGSGGTNYNEKFKGRVTLTADKSSSTAYMQLSRLRSDDTAVYFCARSQLGRRFDYWGQGTLVTVSS VL: DIQMTQSPSSLSASVGDRVTITCKASQDVRTGVAWYQQKPGKAPKLLIYSASYRNTGVPSRFSGSRSGTDFTFTISSLQPEDIATYYCQQHYSPPYTFGGGTKVEIK | binds
humanized Y1238 hz27 (hz-HC6 / hz-LC2), IgG1.3f (antibody, V domains shown) VH: QVQLVQSGAEVKKPGASVKVSCKASGYAFTNYLIEWVRQRPGQGLEWMGVINPGSGGTNYNEKFKGRVTLTADKSISTAYMELSRLRSDDTAVYYCARSQLGRRFDYWGQGTLVTVSS VL: DIQMTQSPSSLSASVGDRVTITCKASQDVRTGVAWYQQKPGKAPKLLIYSASYRNTGVPSRFSGSRSGTDFTFTISSLQPEDIATYYCQQHYSPPYTFGGGTKVEIK | binds
humanized Y1238 hz30 (hz-HC6 / hz-LC5), IgG1.3f (antibody, V domains shown) VH: QVQLVQSGAEVKKPGASVKVSCKASGYAFTNYLIEWVRQRPGQGLEWMGVINPGSGGTNYNEKFKGRVTLTADKSISTAYMELSRLRSDDTAVYYCARSQLGRRFDYWGQGTLVTVSS VL: DIQMTQSPSSLSASVGDRVTITCKASQDVRTGVAWYQQKPGQAPKLLIYSASYRNTGVPSRFSGSRSGTDFTFTISSLQPEDIAVYYCQQHYSPPYTFGGGTKVEIK | binds
humanized Y1238 hz31 (hz-HC7 / hz-LC1), IgG1.3f (antibody, V domains shown) VH: QVQLVQSGAEVVKPGASVKVSCKASGYAFTNYLIEWVRQRPGQGLEWMGVINPGSGGTNYNEKFKGRVTMTADKSSSTAYMQLSRLRSDDTAVYFCARSQLGRRFDYWGQGTLVTVSS VL: DIQMTQSPSSLSASVGDRVTITCKASQDVRTGVAWYQQKPGKAPKLLIYSASYRNTGVPSRFSGSGSGTDFTFTISSLQPEDIATYYCQQHYSPPYTFGGGTKVEIK | binds
humanized Y1238 hz33 (hz-HC7 / hz-LC3), IgG1.3f (antibody, V domains shown) VH: QVQLVQSGAEVVKPGASVKVSCKASGYAFTNYLIEWVRQRPGQGLEWMGVINPGSGGTNYNEKFKGRVTMTADKSSSTAYMQLSRLRSDDTAVYFCARSQLGRRFDYWGQGTLVTVSS VL: DIQMTQSPSSLSASVGDRVTITCKASQDVRTGVAWYQQKPGQSPKLLIYSASYRNTGVPSRFSGSRSGTDFTFTISSLQPEDIAVYYCQQHYSPPYTFGGGTKVEIK | binds
humanized Y1238 hz38 (hz-HC8 / hz-LC3), IgG1.3f (antibody, V domains shown) VH: QVQLVQSGAEVVKPGASVKVSCKASGYAFTNYLIEWVRQRPGQGLEWMGVINPGSGGTNYNEKFKGRVTLTADKSSSTAYMQLSRLRSDDTAVYFCARSQLGRRFDYWGQGTLVTVSS VL: DIQMTQSPSSLSASVGDRVTITCKASQDVRTGVAWYQQKPGQSPKLLIYSASYRNTGVPSRFSGSRSGTDFTFTISSLQPEDIAVYYCQQHYSPPYTFGGGTKVEIK | binds
humanized Y1238 hz28 (hz-HC6 / hz-LC3), IgG1.3f (antibody, V domains shown) VH: QVQLVQSGAEVKKPGASVKVSCKASGYAFTNYLIEWVRQRPGQGLEWMGVINPGSGGTNYNEKFKGRVTLTADKSISTAYMELSRLRSDDTAVYYCARSQLGRRFDYWGQGTLVTVSS VL: DIQMTQSPSSLSASVGDRVTITCKASQDVRTGVAWYQQKPGQSPKLLIYSASYRNTGVPSRFSGSRSGTDFTFTISSLQPEDIAVYYCQQHYSPPYTFGGGTKVEIK | binds
humanized Y1238 hz41 (hz-HC9 / hz-LC1), IgG1.3f (antibody, V domains shown) VH: QVQLVQSGAEVVKPGASVKVSCKASGYAFTNYLIEWVRQRPGQGLEWMGVINPGSGGTNYNEKFKGRVTLTADKSSSTAYMQLSRLRSDDTAVYFCARSQLGRRFDYWGQGTTVTVSS VL: DIQMTQSPSSLSASVGDRVTITCKASQDVRTGVAWYQQKPGKAPKLLIYSASYRNTGVPSRFSGSGSGTDFTFTISSLQPEDIATYYCQQHYSPPYTFGGGTKVEIK | binds
humanized Y1238 hz24 (hz-HC5 / hz-LC4), IgG1.3f (antibody, V domains shown) VH: QVQLVQSGAEVKKPGASVKVSCKASGYAFTNYLIEWVRQRPGQGLEWMGVINPGSGGTNYNEKFKGRVTMTADKSISTAYMELSRLRSDDTAVYYCARSQLGRRFDYWGQGTLVTVSS VL: DIQMTQSPSSLSASVGDRVTITCKASQDVRTGVAWYQQKPGQSPKLLIYSASYRNTGVPSRFSGSRSGTDFTFTISSLQAEDIAVYYCQQHYSPPYTFGGGTKVEIK | binds
humanized Y1238 hz34 (hz-HC7 / hz-LC4), IgG1.3f (antibody, V domains shown) VH: QVQLVQSGAEVVKPGASVKVSCKASGYAFTNYLIEWVRQRPGQGLEWMGVINPGSGGTNYNEKFKGRVTMTADKSSSTAYMQLSRLRSDDTAVYFCARSQLGRRFDYWGQGTLVTVSS VL: DIQMTQSPSSLSASVGDRVTITCKASQDVRTGVAWYQQKPGQSPKLLIYSASYRNTGVPSRFSGSRSGTDFTFTISSLQAEDIAVYYCQQHYSPPYTFGGGTKVEIK | binds
humanized Y1238 hz40 (hz-HC8 / hz-LC5), IgG1.3f (antibody, V domains shown) VH: QVQLVQSGAEVVKPGASVKVSCKASGYAFTNYLIEWVRQRPGQGLEWMGVINPGSGGTNYNEKFKGRVTLTADKSSSTAYMQLSRLRSDDTAVYFCARSQLGRRFDYWGQGTLVTVSS VL: DIQMTQSPSSLSASVGDRVTITCKASQDVRTGVAWYQQKPGQAPKLLIYSASYRNTGVPSRFSGSRSGTDFTFTISSLQPEDIAVYYCQQHYSPPYTFGGGTKVEIK | binds
humanized Y1238 hz39 (hz-HC8 / hz-LC4), IgG1.3f (antibody, V domains shown) VH: QVQLVQSGAEVVKPGASVKVSCKASGYAFTNYLIEWVRQRPGQGLEWMGVINPGSGGTNYNEKFKGRVTLTADKSSSTAYMQLSRLRSDDTAVYFCARSQLGRRFDYWGQGTLVTVSS VL: DIQMTQSPSSLSASVGDRVTITCKASQDVRTGVAWYQQKPGQSPKLLIYSASYRNTGVPSRFSGSRSGTDFTFTISSLQAEDIAVYYCQQHYSPPYTFGGGTKVEIK | binds
humanized Y1238 hz25 (hz-HC5 / hz-LC5), IgG1.3f (antibody, V domains shown) VH: QVQLVQSGAEVKKPGASVKVSCKASGYAFTNYLIEWVRQRPGQGLEWMGVINPGSGGTNYNEKFKGRVTMTADKSISTAYMELSRLRSDDTAVYYCARSQLGRRFDYWGQGTLVTVSS VL: DIQMTQSPSSLSASVGDRVTITCKASQDVRTGVAWYQQKPGQAPKLLIYSASYRNTGVPSRFSGSRSGTDFTFTISSLQPEDIAVYYCQQHYSPPYTFGGGTKVEIK | binds
humanized Y1238 hz32 (hz-HC7 / hz-LC2), IgG1.3f (antibody, V domains shown) VH: QVQLVQSGAEVVKPGASVKVSCKASGYAFTNYLIEWVRQRPGQGLEWMGVINPGSGGTNYNEKFKGRVTMTADKSSSTAYMQLSRLRSDDTAVYFCARSQLGRRFDYWGQGTLVTVSS VL: DIQMTQSPSSLSASVGDRVTITCKASQDVRTGVAWYQQKPGKAPKLLIYSASYRNTGVPSRFSGSRSGTDFTFTISSLQPEDIATYYCQQHYSPPYTFGGGTKVEIK | binds
humanized Y1238 hz42 (hz-HC9 / hz-LC2), IgG1.3f (antibody, V domains shown) VH: QVQLVQSGAEVVKPGASVKVSCKASGYAFTNYLIEWVRQRPGQGLEWMGVINPGSGGTNYNEKFKGRVTLTADKSSSTAYMQLSRLRSDDTAVYFCARSQLGRRFDYWGQGTTVTVSS VL: DIQMTQSPSSLSASVGDRVTITCKASQDVRTGVAWYQQKPGKAPKLLIYSASYRNTGVPSRFSGSRSGTDFTFTISSLQPEDIATYYCQQHYSPPYTFGGGTKVEIK | binds
humanized Y1238 hz35 (hz-HC7 / hz-LC5), IgG1.3f (antibody, V domains shown) VH: QVQLVQSGAEVVKPGASVKVSCKASGYAFTNYLIEWVRQRPGQGLEWMGVINPGSGGTNYNEKFKGRVTMTADKSSSTAYMQLSRLRSDDTAVYFCARSQLGRRFDYWGQGTLVTVSS VL: DIQMTQSPSSLSASVGDRVTITCKASQDVRTGVAWYQQKPGQAPKLLIYSASYRNTGVPSRFSGSRSGTDFTFTISSLQPEDIAVYYCQQHYSPPYTFGGGTKVEIK | binds
